In experiment [1] the target is phosphorylated STAT1 (human (endogenous in A549 or CL1-5 lung adenocarcinoma cells)) (UniProt P42224). In words: co-IP; nuclear extracts (350 ug) from OSM-treated cells incubated overnight at 4°C with anti-STAT1 or anti-STAT3 antibody (or nonspecific IgG) on protein G Dynabeads; washed 3 times in 50 mM Tris pH 7.5, 170 mM NaCl, 13 mM MgCl2, 0.5% NP40, 0.3% Triton X-100; bound proteins detected by Western blotting. In general terms: In western blotting, separated proteins are transferred to a membrane and probed.

Amino acid sequences for entries named in this document (tags omitted).
UniProt P42224: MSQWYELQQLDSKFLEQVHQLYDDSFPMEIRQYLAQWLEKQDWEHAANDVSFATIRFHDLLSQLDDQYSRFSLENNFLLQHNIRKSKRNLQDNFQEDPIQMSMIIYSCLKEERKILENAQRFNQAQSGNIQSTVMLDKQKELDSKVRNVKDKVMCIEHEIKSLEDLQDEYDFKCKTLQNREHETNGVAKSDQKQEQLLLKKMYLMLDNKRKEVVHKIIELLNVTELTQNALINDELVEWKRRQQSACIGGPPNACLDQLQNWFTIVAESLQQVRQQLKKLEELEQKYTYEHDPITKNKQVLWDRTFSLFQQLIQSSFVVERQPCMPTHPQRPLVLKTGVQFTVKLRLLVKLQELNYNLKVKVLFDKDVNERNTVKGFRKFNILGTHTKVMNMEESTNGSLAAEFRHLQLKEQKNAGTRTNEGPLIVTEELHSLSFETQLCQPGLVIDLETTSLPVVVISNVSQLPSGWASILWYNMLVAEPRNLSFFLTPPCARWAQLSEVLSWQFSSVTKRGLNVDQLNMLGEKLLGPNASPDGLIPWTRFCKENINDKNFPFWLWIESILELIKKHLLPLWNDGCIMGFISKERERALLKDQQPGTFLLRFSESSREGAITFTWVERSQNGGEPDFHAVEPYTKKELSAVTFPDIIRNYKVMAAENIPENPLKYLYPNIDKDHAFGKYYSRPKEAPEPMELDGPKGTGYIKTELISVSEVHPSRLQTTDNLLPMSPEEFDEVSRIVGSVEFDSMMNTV
UniProt P40763: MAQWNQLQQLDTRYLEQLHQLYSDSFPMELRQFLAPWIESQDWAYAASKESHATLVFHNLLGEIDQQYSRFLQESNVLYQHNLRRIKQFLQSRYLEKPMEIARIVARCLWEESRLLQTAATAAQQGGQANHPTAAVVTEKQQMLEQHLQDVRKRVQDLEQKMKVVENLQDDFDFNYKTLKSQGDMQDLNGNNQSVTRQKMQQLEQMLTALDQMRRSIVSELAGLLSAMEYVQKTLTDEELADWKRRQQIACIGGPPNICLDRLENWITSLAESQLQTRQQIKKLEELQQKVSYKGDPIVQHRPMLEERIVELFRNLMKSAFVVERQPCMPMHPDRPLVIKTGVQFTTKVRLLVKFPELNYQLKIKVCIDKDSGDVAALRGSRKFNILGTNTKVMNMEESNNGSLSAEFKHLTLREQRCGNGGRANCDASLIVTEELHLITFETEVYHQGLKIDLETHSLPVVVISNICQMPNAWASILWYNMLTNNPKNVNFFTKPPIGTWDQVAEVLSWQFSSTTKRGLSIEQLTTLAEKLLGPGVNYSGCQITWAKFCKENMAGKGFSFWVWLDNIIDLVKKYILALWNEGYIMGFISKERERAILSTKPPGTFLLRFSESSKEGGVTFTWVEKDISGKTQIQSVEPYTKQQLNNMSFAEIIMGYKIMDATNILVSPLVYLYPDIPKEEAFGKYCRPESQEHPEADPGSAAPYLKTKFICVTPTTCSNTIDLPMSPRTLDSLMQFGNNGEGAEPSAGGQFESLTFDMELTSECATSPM
UniProt Q13547: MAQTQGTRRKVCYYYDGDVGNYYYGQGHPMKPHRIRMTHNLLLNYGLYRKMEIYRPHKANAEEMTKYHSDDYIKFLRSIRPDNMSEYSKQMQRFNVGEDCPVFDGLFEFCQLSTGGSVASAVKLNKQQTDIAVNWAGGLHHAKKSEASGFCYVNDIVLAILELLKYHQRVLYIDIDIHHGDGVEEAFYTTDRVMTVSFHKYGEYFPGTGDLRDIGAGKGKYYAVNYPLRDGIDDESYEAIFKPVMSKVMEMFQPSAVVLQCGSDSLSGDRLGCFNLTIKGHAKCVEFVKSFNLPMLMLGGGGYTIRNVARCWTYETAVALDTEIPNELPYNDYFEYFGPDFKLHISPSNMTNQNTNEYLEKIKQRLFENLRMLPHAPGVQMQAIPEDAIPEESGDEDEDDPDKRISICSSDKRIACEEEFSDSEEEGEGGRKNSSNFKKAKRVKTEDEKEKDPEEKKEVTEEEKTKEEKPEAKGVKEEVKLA

Experiment [2] concerns the target STAT3 (human (endogenous in A549 or CL1-5 lung adenocarcinoma cells)) (UniProt P40763). The experiment is described as above.

Results are given in words; binding and its absence hold for the method and conditions named. In cells and extracts the contact can be indirect. Some binding calls cover weakened binding; strength is not graded here.

For HDAC1 (from UniProt Q13547 1-482), the binding entry in experiment [1] is “binds”.

B1: PIAS4 (protein, UniProt Q8N2W9 1-510)
chain: MAAELVEAKNMVMSFRVSDLQMLLGFVGRSKSGLKHELVTRALQLVQFDCSPELFKKIKELYETRYAKKNSEPAPQPHRPLDPLTMHSTYDRAGAVPRTPLAGPNIDYPVLYGKYLNGLGRLPAKTLKPEVRLVKLPFFNMLDELLKPTELVPQNNEKLQESPCIFALTPRQVELIRNSRELQPGVKAVQVVLRICYSDTSCPQEDQYPPNIAVKVNHSYCSVPGYYPSNKPGVEPKRPCRPINLTHLMYLSSATNRITVTWGNYGKSYSVALYLVRQLTSSELLQRLKTIGVKHPELCKALVKEKLRLDPDSEIATTGVRVSLICPLVKMRLSVPCRAETCAHLQCFDAVFYLQMNEKKPTWMCPVCDKPAPYDQLIIDGLLSKILSECEDADEIEYLVDGSWCPIRAEKERSCSPQGAILVLGPSDANGLLPAPSVNGSGALGSTGGGGPVGSMENGKPGADVVDLTLDSSSSSEDEEEEEEEEEDEDEEGPRPKRRCPFQKGLVPAC
With B1, the binding result is reported as “no binding” in experiment [2] and “binds” in experiment [1].

B2: PIAS3 (protein, UniProt Q9Y6X2 1-628)
chain: MAELGELKHMVMSFRVSELQVLLGFAGRNKSGRKHELLAKALHLLKSSCAPSVQMKIKELYRRRFPRKTLGPSDLSLLSLPPGTSPVGSPGPLAPIPPTLLAPGTLLGPKREVDMHPPLPQPVHPDVTMKPLPFYEVYGELIRPTTLASTSSQRFEEAHFTFALTPQQVQQILTSREVLPGAKCDYTIQVQLRFCLCETSCPQEDYFPPNLFVKVNGKLCPLPGYLPPTKNGAEPKRPSRPINITPLARLSATVPNTIVVNWSSEFGRNYSLSVYLVRQLTAGTLLQKLRAKGIRNPDHSRALIKEKLTADPDSEVATTSLRVSLMCPLGKMRLTVPCRALTCAHLQSFDAALYLQMNEKKPTWTCPVCDKKAPYESLIIDGLFMEILSSCSDCDEIQFMEDGSWCPMKPKKEASEVCPPPGYGLDGLQYSPVQGGDPSENKKKVEVIDLTIESSSDEEDLPPTKKHCSVTSAAIPALPGSKGVLTSGHQPSSVLRSPAMGTLGGDFLSSLPLHEYPPAFPLGADIQGLDLFSFLQTESQHYGPSVITSLDEQDALGHFFQYRGTPSHFLGPLAPTLGSSHCSATPAPPPGRVSSIVAPGGALREGHGGPLPSGPSLTGCRSDIISLD
As to B2, the binding entry in experiment [2] was “binds”.

These data come from article PMC5312391.
